These are yes or no findings as the source states them, for the method shown. Some binding calls cover weakened binding; strength is not graded here.
Experiments:
CD40 receptor on cells [1] = target: T1, CD40 receptor on cells (human, UniProt P25942 21-277); assay: flow cytometry, receptor on HT1080 cells, second receptor-Fc for detection
4-1BB receptor on cells [2] = target: T2, 4-1BB receptor on cells (human, UniProt Q07011 24-255); assay: as above
CD40-Fc [3] = target: T3, CD40-Fc (human, UniProt P25942 21-193); assay: ELISA, coated receptor-Fc
T3 construct: extracellular domain; hinge included for covalent assembly; also called CD40 receptor-Fc fusion protein; not shown: human Fc gamma 1 region including the hinge region

Chains of the proteins cited; added tags and fusions are not shown. Lines headed by an entry give the natural chain unless they say otherwise; changes in a name come on top.
UniProt P25942: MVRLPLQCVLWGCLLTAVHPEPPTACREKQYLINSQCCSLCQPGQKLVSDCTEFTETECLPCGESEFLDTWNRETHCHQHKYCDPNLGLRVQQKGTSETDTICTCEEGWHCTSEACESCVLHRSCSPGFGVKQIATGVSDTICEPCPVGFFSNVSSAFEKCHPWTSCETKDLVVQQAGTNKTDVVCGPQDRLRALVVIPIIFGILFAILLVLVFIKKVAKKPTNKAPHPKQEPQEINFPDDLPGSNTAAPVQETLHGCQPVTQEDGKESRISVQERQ
UniProt Q07011: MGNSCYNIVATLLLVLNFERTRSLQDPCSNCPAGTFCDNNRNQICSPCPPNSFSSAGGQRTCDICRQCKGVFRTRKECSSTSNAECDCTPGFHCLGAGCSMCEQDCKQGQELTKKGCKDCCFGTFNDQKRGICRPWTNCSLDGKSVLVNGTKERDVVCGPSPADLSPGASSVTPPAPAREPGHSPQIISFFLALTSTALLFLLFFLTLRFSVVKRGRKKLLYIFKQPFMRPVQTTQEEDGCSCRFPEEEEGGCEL

4-1BB-Fc [4] = target: T4, 4-1BB-Fc (human, UniProt Q07011 24-186); assay: ELISA, coated receptor-Fc
T4 construct: extracellular domain; hinge included for covalent assembly; also called 4-1BB receptor-Fc fusion protein; not shown: human Fc gamma 1 region including the hinge region

CD40-Fc [5] = target: T3, CD40-Fc; assay: flow cytometry, soluble receptor-Fc (10 nM) on cell-bound scDuokine
4-1BB-Fc [6] = target: T4, 4-1BB-Fc; assay: as above
CD40 receptor on cells [7] = target: T1, CD40 receptor on cells; assay: flow cytometry, HT1080 transfectants, 100 nM
4-1BB receptor on cells [8] = target: T2, 4-1BB receptor on cells; assay: flow cytometry, HT1080 transfectants, 100 nM
CD40-Fc [9] = target: T3, CD40-Fc; assay: ELISA, 100 nM, immobilized receptor-Fc
4-1BB-Fc [10] = target: T4, 4-1BB-Fc; assay: ELISA, 100 nM, immobilized receptor-Fc
CD40-Fc [11] = target: T3, CD40-Fc; assay: ELISA titration from 316 nM
4-1BB-Fc [12] = target: T4, 4-1BB-Fc; assay: ELISA titration from 316 nM

Measured: binding

B1: scCD40L-sc4-1BBL (ligand)
chain: GDQNPQIAAHVISEASSKTTSVLQWAEKGYYTMSNNLVTLENGKQLTVKRQGLYYIYAQVTFCSNREASSQAPFIASLCLKSPGRFERILLRAANTHSSAKPCGQQSIHLGGVFELQPGASVFVNVTDPSQVSHGTGFTSFGLLKLGGGSGGGGDQNPQIAAHVISEASSKTTSVLQWAEKGYYTMSNNLVTLENGKQLTVKRQGLYYIYAQVTFCSNREASSQAPFIASLCLKSPGRFERILLRAANTHSSAKPCGQQSIHLGGVFELQPGASVFVNVTDPSQVSHGTGFTSFGLLKLGGGSGGGGDQNPQIAAHVISEASSKTTSVLQWAEKGYYTMSNNLVTLENGKQLTVKRQGLYYIYAQVTFCSNREASSQAPFIASLCLKSPGRFERILLRAANTHSSAKPCGQQSIHLGGVFELQPGASVFVNVTDPSQVSHGTGFTSFGLLKLGGGGSGGGTGGGGSREGPELSPDDPAGLLDLRQGMFAQLVAQNVLLIDGPLSWYSDPGLAGVSLTGGLSYKEDTKELVVAKAGVYYVFFQLELRRVVAGEGSGSVSLALHLQPLRSAAGAAALALTVDLPPASSEARNSAFGFQGRLLHLSAGQRLGVHLHTEARARHAWQLTQGATVLGLFRVTPEIPAGLPSPRSEGGGGSGGGGSGGGGSREGPELSPDDPAGLLDLRQGMFAQLVAQNVLLIDGPLSWYSDPGLAGVSLTGGLSYKEDTKELVVAKAGVYYVFFQLELRRVVAGEGSGSVSLALHLQPLRSAAGAAALALTVDLPPASSEARNSAFGFQGRLLHLSAGQRLGVHLHTEARARHAWQLTQGATVLGLFRVTPEIPAGLPSPRSEGGGGSGGGGSGGGGSREGPELSPDDPAGLLDLRQGMFAQLVAQNVLLIDGPLSWYSDPGLAGVSLTGGLSYKEDTKELVVAKAGVYYVFFQLELRRVVAGEGSGSVSLALHLQPLRSAAGAAALALTVDLPPASSEARNSAFGFQGRLLHLSAGQRLGVHLHTEARARHAWQLTQGATVLGLFRVTPEIPAGLPSPRSE
notes: scDuokine from HEK293; VH leader left out; also called single-chain Duokine scCD40L-sc4-1BBL; not shown: N-terminal FLAG tag
binds: all assays above
